Assay results taken from patent US7799955B2, “Isoflavone metabolites” (priority 1999, dated 2010).
Some of these results come from one statement about several compounds together. At least one compound was matched to its structure with a doubt left.

Tested on: MCF-7 cells
Assay: MTS in vitro cytotoxicity / cell viability assay on MCF-7 breast cancer cells
Format: cell-based
Conditions: Example 9; for IC50, inhibitory effect on MCF7 cells (no significant effect): incubation time not given
Protocol: Compound A was compared with genistein to test the cell viability of MCF-7 cells. […] The cell viability was tested using the MTS in vitro cytotoxicity assay. This is considered the most convenient assay because of its ease of use, accuracy and rapid indication of toxicity (Malich G et al., Toxicology 124(3): 179-92 (1997).

Row | Structure (SMILES) | IC50, inhibitory effect on MCF7 cells (72 and 144 hours incubation) [µg/mL] | IC50, inhibitory effect on MCF7 cells (no significant effect)
1 | CC(C(=O)c1c(O)cc(O)cc1O)c1ccc(O)cc1 (stereo not drawn) [6-hydroxy-O-Dma] | 18 to 23 | –
2 | CC(C(=O)c1ccc(O)cc1O)c1ccc(O)cc1 (stereo not drawn) [O-Dma, O-desmethylangolensin] | – | 36->50 μg/ml
3 | Oc1ccc(C2COc3cc(O)ccc3C2O)cc1 (stereo not drawn) [tetrahydrodaidzein] | – | 36->50 μg/ml
